Laboratory results: PubChem BioAssay AID1259405 (NCATS, 2018)

Assay: 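Knock-downs that lift recombinant protein yield in hamster ovary cells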 (primary screen)
Cell system: Chinese hamster CHO-K1 ovary cells with stable secreted eGFP expression
Knock-down reagent: single siRNA against mouse genes, 0.8 pmol siRNA per well (2 µl of 400 nM stock)
Duration: 3 days
Read-out: 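Percent of the per-plate non-targeting control median for intracellular GFP per well by laser scanning cytometry and for cell viability by ATP luminescence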
Scale: GFP, % of control: higher = more GFP per well, higher productivity; viability (ATP), % of control: higher = more viable cells (more ATP)
Active means: 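Called active when intracellular GFP, relative to negative control, is at or above 120%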
In all, the deposit lists about 50,000 reagents; below is a part drawn at random. About 4,000 of them (8%) count as active. 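Mouse siRNA library applied to hamster cells; one well for each siRNA.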 The numbers tell different reagents against one gene apart.

Target gene	reagent	GFP, % of control	viability (ATP), % of control	activity call
Pcp4 (Purkinje cell protein 4)	1	56	64	inactive
Pcp4 (Purkinje cell protein 4)	2	66.4	81.5	inactive
Pcp4 (Purkinje cell protein 4)	3	58.2	69.2	inactive
Armh3 (armadillo-like helical domain containing 3)	1	64.9	37.5	inactive
Armh3 (armadillo-like helical domain containing 3)	2	55.8	70.5	inactive
Armh3 (armadillo-like helical domain containing 3)	3	68.1	46.5	inactive
Dqx1 (DEAQ RNA-dependent ATPase)	1	107	97.5	inactive
Dqx1 (DEAQ RNA-dependent ATPase)	2	68.7	88.2	inactive
Dqx1 (DEAQ RNA-dependent ATPase)	3	57.5	54.9	inactive
E130018O15Rik (RIKEN cDNA E130018O15 gene)	1	86.1	106	inactive
E130018O15Rik (RIKEN cDNA E130018O15 gene)	2	86.5	73.3	inactive
E130018O15Rik (RIKEN cDNA E130018O15 gene)	3	161	72	active
Zmynd19 (zinc finger, MYND domain containing 19)	1	69.6	55	inactive
Zmynd19 (zinc finger, MYND domain containing 19)	2	83.6	61.9	inactive
Zmynd19 (zinc finger, MYND domain containing 19)	3	91.3	98	inactive
Tcstv1a (2 cell stage variable group member 1A)	1	92.3	153	inactive
Tcstv1a (2 cell stage variable group member 1A)	2	73.7	94.3	inactive
Tcstv1a (2 cell stage variable group member 1A)	3	143	127	active
Nr2f1 (nuclear receptor subfamily 2, group F, member 1)	1	93.4	92.1	inactive
Nr2f1 (nuclear receptor subfamily 2, group F, member 1)	2	107	81.5	inactive
Apol9b (apolipoprotein L 9b)	1	60.2	72.4	inactive
Apol9b (apolipoprotein L 9b)	2	23.9	34.8	inactive
Apol9b (apolipoprotein L 9b)	3	89.2	98.4	inactive
Bmp5 (bone morphogenetic protein 5)	1	41.4	46.3	inactive
Bmp5 (bone morphogenetic protein 5)	2	50.9	54.3	inactive
Bmp5 (bone morphogenetic protein 5)	3	59.3	73.6	inactive
Ca5a (carbonic anhydrase 5A)	1	108	104	inactive
Ca5a (carbonic anhydrase 5A)	2	65.3	66.4	inactive
Gadd45gip1	1	87.8	111	inactive
Gadd45gip1	2	58.7	75.1	inactive
Gadd45gip1	3	90	57.9	inactive
Alb (albumin)	1	111	86.2	inactive
Alb (albumin)	2	130	77.8	active
Alb (albumin)	3	49.4	48	inactive
Sec24b (SEC24 homolog B, COPII coat complex component)	1	59.9	69.2	inactive
Sec24b (SEC24 homolog B, COPII coat complex component)	2	61.2	59.1	inactive
Slc1a2	1	96.7	65.3	inactive
Slc1a2	2	70.1	63.4	inactive
Slc1a2	3	102	98.4	inactive
Arhgef40 (Rho guanine nucleotide exchange factor 40)	1	143	80.9	active
Arhgef40 (Rho guanine nucleotide exchange factor 40)	2	90.9	82.7	inactive
Arhgef40 (Rho guanine nucleotide exchange factor 40)	3	70.8	61.8	inactive
Nr1h2 (nuclear receptor subfamily 1, group H, member 2)	1	114	101	inactive
Nr1h2 (nuclear receptor subfamily 1, group H, member 2)	2	92.1	60.5	inactive
Smad4 (SMAD family member 4)	1	76.7	77.4	inactive
Smad4 (SMAD family member 4)	2	88.7	77.5	inactive
Smad4 (SMAD family member 4)	3	65.1	93.5	inactive
Mrpl28 (mitochondrial ribosomal protein L28)	1	89.4	74.6	inactive
Mrpl28 (mitochondrial ribosomal protein L28)	2	95.7	72.5	inactive
Mrpl28 (mitochondrial ribosomal protein L28)	3	87.8	66	inactive
Tpk1 (thiamine pyrophosphokinase)	1	104	73.4	inactive
Tpk1 (thiamine pyrophosphokinase)	2	60	52.8	inactive
Tpk1 (thiamine pyrophosphokinase)	3	77.8	74.5	inactive
Dap3 (death associated protein 3)	1	79.9	79.8	inactive
Dap3 (death associated protein 3)	2	117	83.6	inactive
Dap3 (death associated protein 3)	3	62.4	65.3	inactive
Adam22 (a disintegrin and metallopeptidase domain 22)	1	29.9	20	inactive
Adam22 (a disintegrin and metallopeptidase domain 22)	2	71.5	35.4	inactive
Adam22 (a disintegrin and metallopeptidase domain 22)	3	81.2	89.2	inactive

Reagents listed so far marked active, once more:
Target gene	reagent	GFP, % of control	viability (ATP), % of control	activity call
E130018O15Rik (RIKEN cDNA E130018O15 gene)	3	161	72	active
Tcstv1a (2 cell stage variable group member 1A)	3	143	127	active
Alb (albumin)	2	130	77.8	active
Arhgef40 (Rho guanine nucleotide exchange factor 40)	1	143	80.9	active
